Laboratory results: patent publication US20100172900A1
These are yes or no findings as the source states them, for the method shown. Some binding calls cover weakened binding; strength is not graded here.

Protein sequences, listed by entry. Tags and fused reporters are not part of them. Lines headed by an entry give the natural chain unless they say otherwise; changes in a name come on top.
UniProt Q7Z6A9: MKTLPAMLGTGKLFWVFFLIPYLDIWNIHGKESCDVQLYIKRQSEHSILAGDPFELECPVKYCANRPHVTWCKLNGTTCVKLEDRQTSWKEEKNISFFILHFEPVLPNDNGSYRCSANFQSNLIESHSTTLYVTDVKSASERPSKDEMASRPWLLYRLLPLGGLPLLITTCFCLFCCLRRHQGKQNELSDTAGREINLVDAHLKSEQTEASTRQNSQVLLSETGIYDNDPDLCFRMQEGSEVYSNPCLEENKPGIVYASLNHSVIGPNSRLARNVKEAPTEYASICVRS

Experiments:
[1] = target: recombinant human BTLA fusion protein (human) (UniProt Q7Z6A9); assay: BIAcore, antibody capture method
[2] = target: recombinant human BTLA fusion protein (human) (UniProt Q7Z6A9); assay: ELISA, plate coated with receptor-Ig fusion, antibody at 1 ug/mL, HRP-conjugated detection antibody

binding [1]: binds
binding [2]: binds
B1: 3C2 human monoclonal antibody (antibody, IgG1, V domains shown)
VH: QVQLQESGPGLVKPSETLSLTCTISGGSISNYYWNWIRQPPGKGLEWIGYIYYSTSTKYNPSLKSRVTMSVETSKNQFSLKLSSVTAADTAVYYCARVKVYSTGWFFDYWGQGTLVTVSS
VL: AIQLTQSPSSLSASVGDRVTITCRASQGISSALAWYQQKPGKAPKLLIYDASSLESGVPSRFSGSGSGTDFTLTISSLQPEDFATYYCQQFNSYPLTFGGGTKVEIK
